Results from PubChem BioAssay AID188 (DTP/NCI, 2004).
Shown are survivors of the treated group in tumour-free mice. Counts of survivors are from the toxicity check (mostly the fifth day) where no day follows; animals may have died later. Schedule codes are those of the source, read here as Q, the interval in days (D) or hours (H), X, the number of doses.

Tested on: CD2F1 mice, nontumored, toxicity/survival
Experiment: NCI In Vivo Anticancer Drug Screen. Data for tumor model Nontumored Animals (Toxicity Test) in CD2F1 (CDF1) mice
[1] = dose: 1.0 mg/kg/injection, schedule: Q01DX001 (ip), vehicle: other

Nc1ncnc2c1ccn2C1OC(CO)C(O)C1O (stereo not drawn)
survivor count (dose: 0.06 mg/kg/injection, schedule: Q03HX024 (ip), vehicle: other): 8 of 8 | survivor count (dose: 0.13 mg/kg/injection, schedule: Q03HX008 (ip), vehicle: other): 8 of 8 | survivor count (dose: 0.13 mg/kg/injection, schedule: Q03HX016 (ip), vehicle: other): 8 of 8 | survivor count (dose: 0.13 mg/kg/injection, schedule: Q03HX024 (ip), vehicle: other): 7 of 8 | survivor count (dose: 0.25 mg/kg/injection, schedule: Q01DX009 (ip), vehicle: other): 8 of 8 | survivor count (dose: 0.25 mg/kg/injection, schedule: Q01DX009 (sc), vehicle: other): 8 of 8 | survivor count (dose: 0.25 mg/kg/injection, schedule: Q03HX008 (ip), vehicle: other): 8 of 8 | survivor count (dose: 0.25 mg/kg/injection, schedule: Q03HX016 (ip), vehicle: other): 8 of 8 | survivor count (dose: 0.25 mg/kg/injection, schedule: Q03HX024 (ip), vehicle: other): 8 of 8 | survivor count (dose: 0.5 mg/kg/injection, schedule: Q01DX009 (ip), vehicle: other): 8 of 8 | survivor count (dose: 0.5 mg/kg/injection, schedule: Q01DX009 (oral), vehicle: other): 8 of 8 | survivor count (dose: 0.5 mg/kg/injection, schedule: Q01DX009 (sc), vehicle: other): 8 of 8 | survivor count (dose: 0.5 mg/kg/injection, schedule: Q03HX008 (ip), vehicle: other): 7 of 8 | survivor count (dose: 0.5 mg/kg/injection, schedule: Q03HX016 (ip), vehicle: other): 8 of 8 | survivor count (dose: 0.5 mg/kg/injection, schedule: Q03HX024 (ip), vehicle: other): 8 of 8 | survivor count (dose: 0.5 mg/kg/injection, schedule: Q04DX003 (ip), vehicle: other): 8 of 8 | survivor count [1]: 8 of 8 | survivor count (dose: 1.0 mg/kg/injection, schedule: Q01DX001 (sc), vehicle: other): 8 of 8 | survivor count (dose: 1.0 mg/kg/injection, schedule: Q01DX009 (ip), vehicle: other): 8 of 8 | survivor count (dose: 1.0 mg/kg/injection, schedule: Q01DX009 (oral), vehicle: other): 8 of 8 | survivor count (dose: 1.0 mg/kg/injection, schedule: Q01DX009 (sc), vehicle: other): 8 of 8 | survivor count (dose: 1.0 mg/kg/injection, schedule: Q03HX008 (ip), vehicle: other): 8 of 8 | survivor count (dose: 1.0 mg/kg/injection, schedule: Q03HX016 (ip), vehicle: other): 6 of 8 | survivor count (dose: 1.0 mg/kg/injection, schedule: Q03HX024 (ip), vehicle: other): 8 of 8 | survivor count (dose: 1.0 mg/kg/injection, schedule: Q04DX003 (ip), vehicle: other): 8 of 8 | survivor count (dose: 1.0 mg/kg/injection, schedule: Q08DX002 (ip), vehicle: other): 8 of 8 | survivor count (dose: 2.0 mg/kg/injection, schedule: Q01DX001 (ip), vehicle: other): 8 of 8 | survivor count (dose: 2.0 mg/kg/injection, schedule: Q01DX001 (oral), vehicle: other): 8 of 8 | survivor count (dose: 2.0 mg/kg/injection, schedule: Q01DX001 (sc), vehicle: other): 8 of 8 | survivor count (dose: 2.0 mg/kg/injection, schedule: Q01DX009 (ip), vehicle: other): 8 of 8 | survivor count (dose: 2.0 mg/kg/injection, schedule: Q01DX009 (oral), vehicle: other): 8 of 8 | survivor count (dose: 2.0 mg/kg/injection, schedule: Q01DX009 (sc), vehicle: other): 8 of 8 | survivor count (dose: 2.0 mg/kg/injection, schedule: Q03HX008 (ip), vehicle: other): 3 of 8 | survivor count (dose: 2.0 mg/kg/injection, schedule: Q03HX016 (ip), vehicle: other): 3 of 8 | survivor count (dose: 2.0 mg/kg/injection, schedule: Q04DX003 (ip), vehicle: other): 8 of 8 | survivor count (dose: 2.0 mg/kg/injection, schedule: Q08DX002 (ip), vehicle: other): 8 of 8 | survivor count (dose: 4.0 mg/kg/injection, schedule: Q01DX001 (ip), vehicle: other): 8 of 8 | survivor count (dose: 4.0 mg/kg/injection, schedule: Q01DX001 (oral), vehicle: other): 8 of 8 | survivor count (dose: 4.0 mg/kg/injection, schedule: Q01DX001 (sc), vehicle: other): 8 of 8 | survivor count (dose: 4.0 mg/kg/injection, schedule: Q01DX009 (ip), vehicle: other): 8 of 8 | survivor count (dose: 4.0 mg/kg/injection, schedule: Q01DX009 (oral), vehicle: other): 8 of 8 | survivor count (dose: 4.0 mg/kg/injection, schedule: Q01DX009 (sc), vehicle: other): 8 of 8 | survivor count (dose: 4.0 mg/kg/injection, schedule: Q04DX003 (ip), vehicle: other): 8 of 8 | survivor count (dose: 4.0 mg/kg/injection, schedule: Q08DX002 (ip), vehicle: other): 8 of 8 | survivor count (dose: 8.0 mg/kg/injection, schedule: Q01DX001 (ip), vehicle: other): 8 of 8 | survivor count (dose: 8.0 mg/kg/injection, schedule: Q01DX001 (oral), vehicle: other): 8 of 8 | survivor count (dose: 8.0 mg/kg/injection, schedule: Q01DX001 (sc), vehicle: other): 8 of 8 | survivor count (dose: 8.0 mg/kg/injection, schedule: Q01DX009 (oral), vehicle: other): 8 of 8 | survivor count (dose: 8.0 mg/kg/injection, schedule: Q04DX003 (ip), vehicle: other): 8 of 8 | survivor count (dose: 8.0 mg/kg/injection, schedule: Q08DX002 (ip), vehicle: other): 7 of 8 | survivor count (dose: 16.0 mg/kg/injection, schedule: Q01DX001 (ip), vehicle: other): 2 of 8 | survivor count (dose: 16.0 mg/kg/injection, schedule: Q01DX001 (oral), vehicle: other): 8 of 8 | survivor count (dose: 16.0 mg/kg/injection, schedule: Q01DX001 (sc), vehicle: other): 8 of 8 | survivor count (dose: 16.0 mg/kg/injection, schedule: Q08DX002 (ip), vehicle: other): 7 of 8 | survivor count (dose: 32.0 mg/kg/injection, schedule: Q01DX001 (oral), vehicle: other): 6 of 8

C=CCNC(=O)NCC=C
survivor count (dose: 25.0 mg/kg/injection, schedule: Q01DX006 (ip), vehicle: saline): 10 of 10 | survivor count (dose: 50.0 mg/kg/injection, schedule: Q01DX006 (ip), vehicle: saline): 10 of 10 | survivor count (dose: 100.0 mg/kg/injection, schedule: Q01DX006 (ip), vehicle: saline): 10 of 10 | survivor count (dose: 200.0 mg/kg/injection, schedule: Q01DX006 (ip), vehicle: saline): 10 of 10

CO[C@@]12[C@H](COC(N)=O)C3=C(C(=O)C(C)=C(N)C3=O)N1C[C@@H]1N[C@@H]12
survivor count (dose: 0.13 mg/kg/injection, schedule: Q01DX009 (ip), vehicle: saline): 5 of 5 | survivor count (dose: 0.22 mg/kg/injection, schedule: Q01DX009 (ip), vehicle: saline): 5 of 5 | survivor count (dose: 0.25 mg/kg/injection, schedule: Q01DX009 (ip), vehicle: water): 4 of 4 | survivor count (dose: 0.36 mg/kg/injection, schedule: Q01DX009 (ip), vehicle: saline): 5 of 5 | survivor count (dose: 0.36 mg/kg/injection, schedule: Q01DX009 (ip), vehicle: water): 4 of 4 | survivor count (dose: 0.38 mg/kg/injection, schedule: Q01DX009 (ip), vehicle: saline): 4 of 4 | survivor count (dose: 0.5 mg/kg/injection, schedule: Q01DX009 (ip), vehicle: water): 4 of 4 | survivor count (dose: 0.6 mg/kg/injection, schedule: Q01DX009 (ip), vehicle: saline): 5 of 5 | survivor count (dose: 0.6 mg/kg/injection, schedule: Q01DX009 (ip), vehicle: water): 4 of 4 | survivor count (dose: 0.75 mg/kg/injection, schedule: Q01DX009 (ip), vehicle: saline): 4 of 4 | survivor count (dose: 1.0 mg/kg/injection, schedule: Q01DX009 (ip), vehicle: saline): 5 of 5 | survivor count (dose: 1.0 mg/kg/injection, schedule: Q01DX009 (ip), vehicle: water): 4 of 4 | survivor count (dose: 1.5 mg/kg/injection, schedule: Q01DX009 (ip), vehicle: saline): 4 of 4 | survivor count (dose: 1.67 mg/kg/injection, schedule: Q01DX009 (ip), vehicle: saline): 5 of 5 | survivor count (dose: 1.67 mg/kg/injection, schedule: Q01DX009 (ip), vehicle: water): 4 of 4 | survivor count (dose: 1.8 mg/kg/injection, schedule: Q01DX001 (ip), vehicle: saline): 4 of 4 | survivor count (dose: 1.8 mg/kg/injection, schedule: Q01DX001 (ip), vehicle: water): 4 of 4 | survivor count (dose: 1.8 mg/kg/injection, schedule: Q04DX003 (ip), vehicle: water): 5 of 5 | survivor count (dose: 2.0 mg/kg/injection, schedule: Q01DX009 (ip), vehicle: water): 4 of 4 | survivor count (dose: 3.0 mg/kg/injection, schedule: Q01DX001 (ip), vehicle: saline): 4 of 4 | survivor count (dose: 3.0 mg/kg/injection, schedule: Q01DX001 (ip), vehicle: water): 4 of 4 | survivor count (dose: 3.0 mg/kg/injection, schedule: Q01DX009 (ip), vehicle: saline): 4 of 4 | survivor count (dose: 3.0 mg/kg/injection, schedule: Q04DX003 (ip), vehicle: water): 5 of 5 | survivor count (dose: 5.0 mg/kg/injection, schedule: Q01DX001 (ip), vehicle: saline): 4 of 4 | survivor count (dose: 5.0 mg/kg/injection, schedule: Q01DX001 (ip), vehicle: water): 4 of 4 | survivor count (dose: 5.0 mg/kg/injection, schedule: Q04DX003 (ip), vehicle: water): 5 of 5 | survivor count (dose: 8.3 mg/kg/injection, schedule: Q01DX001 (ip), vehicle: saline): 4 of 4 | survivor count (dose: 8.3 mg/kg/injection, schedule: Q01DX001 (ip), vehicle: water): 4 of 4 | survivor count (dose: 8.3 mg/kg/injection, schedule: Q04DX003 (ip), vehicle: water): 5 of 5

Nc1ncnc2c1ncn2C1OC(COP(=O)(O)O)C(O)C1O (stereo not drawn)
survivor count (dose: 20.0 mg/kg/injection, schedule: Q01DX009 (ip), vehicle: water): 10 of 10 | survivor count (dose: 40.0 mg/kg/injection, schedule: Q01DX009 (ip), vehicle: water): 10 of 10 | survivor count (dose: 80.0 mg/kg/injection, schedule: Q01DX009 (ip), vehicle: water): 10 of 10 | survivor count (dose: 80.0 mg/kg/injection, schedule: Q04DX002 (ip), vehicle: water): 10 of 10 | survivor count (dose: 150.0 mg/kg/injection, schedule: Q03HX024 (ip), vehicle: water): 5 of 5 | survivor count (dose: 160.0 mg/kg/injection, schedule: Q01DX009 (ip), vehicle: water): 10 of 10 | survivor count (dose: 160.0 mg/kg/injection, schedule: Q04DX002 (ip), vehicle: water): 10 of 10 | survivor count (dose: 250.0 mg/kg/injection, schedule: Q03HX024 (ip), vehicle: water): 5 of 5 | survivor count (dose: 320.0 mg/kg/injection, schedule: Q01DX009 (ip), vehicle: water): 10 of 10 | survivor count (dose: 320.0 mg/kg/injection, schedule: Q04DX002 (ip), vehicle: water): 10 of 10 | survivor count (dose: 640.0 mg/kg/injection, schedule: Q01DX009 (ip), vehicle: water): 10 of 10 | survivor count (dose: 640.0 mg/kg/injection, schedule: Q04DX002 (ip), vehicle: water): 10 of 10

COc1ccc2c(c1O)-c1cccc3c1[C@@H](C2)N(CCCl)CC3
survivor count [1]: 2 of 2 | survivor count (dose: 10.0 mg/kg/injection, schedule: Q01DX001 (ip), vehicle: other): 2 of 2 | survivor count (dose: 100.0 mg/kg/injection, schedule: Q01DX001 (ip), vehicle: other): 2 of 2
